Results are given in words; binding and its absence hold for the method and conditions named.
Columns and labels:
[1] = molecular target: T1, bZIP25 DNA binding domain and leucine zipper region (V230-S322) (Arabidopsis thaliana) (UniProt Q9M1G6); assay: CD thermal denaturation; equimolar mixture of two proteins (2 µM dimer each, 4 µM dimer mixture), ellipticity at 222 nm, heated from 6–85 °C; mixture curve compared with the theoretical sum line; KD of the heterodimer at 25 °C calculated from ΔGDi; both purified
T1 sequence: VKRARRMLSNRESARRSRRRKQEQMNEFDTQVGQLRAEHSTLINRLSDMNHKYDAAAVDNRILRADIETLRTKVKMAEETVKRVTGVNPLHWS

[2] = molecular target: T1, bZIP25 DNA binding domain and leucine zipper region (V230-S322) (Arabidopsis thaliana); assay: native MS; ESI-MS in unbuffered MS grade water, 2 µM homodimer, 4 µM heterodimer mixtures, samples kept at 23 ± 2 °C, ion spray interface temperature switched off, declustering potential 10 V; both purified

B1: bZIP53 DNA binding domain and leucine zipper region (Y18-D116) (domain or fragment, Arabidopsis thaliana, UniProt Q9LZP8 18-116, looked up)
chain: YATVTDERKRKRMISNRESARRSRMRKQKQLGDLINEVTLLKNDNAKITEQVDEASKKYIEMESKNNVLRAQASELTDRLRSLNSVLEMVEEISGQALD
notes: An internal HindIII site of the amplicon was destroyed by site-directed mutagenesis; Measured monomer mass 12957 Da; In the protoplast reporter assays the full-length protein was expressed from a plasmid; also called basic leucine zipper 53; source: E. coli BL21 (DE-3), HPLC purified
binding [1]: no binding (tested: 2 µM dimer each) | binding [2]: no binding (tested: 2 µM each)

From PMC5662769, “A-ZIP53, a dominant negative reveals the molecular mechanism of heterodimerization between bZIP53, bZIP10 and bZIP25 involved in Arabidopsis seed maturation” (Scientific Reports, 2017)
